Our source for the log2 fold change values is the supplement of paper PMC10849652.

By UniProt entry, the sequences of proteins in these tests, tags left out. Where a name states a change or a piece, a line headed by the entry shows the natural chain unless it says otherwise.
UniProt Q9NV92: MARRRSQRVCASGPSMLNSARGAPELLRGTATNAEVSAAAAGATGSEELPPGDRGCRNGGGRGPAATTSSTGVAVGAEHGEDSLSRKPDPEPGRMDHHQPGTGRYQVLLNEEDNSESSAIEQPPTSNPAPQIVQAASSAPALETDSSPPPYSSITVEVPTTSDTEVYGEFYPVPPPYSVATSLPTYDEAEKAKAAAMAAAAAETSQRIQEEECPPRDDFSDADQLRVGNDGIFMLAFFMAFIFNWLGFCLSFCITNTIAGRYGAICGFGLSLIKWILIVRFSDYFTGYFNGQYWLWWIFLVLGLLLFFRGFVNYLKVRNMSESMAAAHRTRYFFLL
UniProt Q8TBE9: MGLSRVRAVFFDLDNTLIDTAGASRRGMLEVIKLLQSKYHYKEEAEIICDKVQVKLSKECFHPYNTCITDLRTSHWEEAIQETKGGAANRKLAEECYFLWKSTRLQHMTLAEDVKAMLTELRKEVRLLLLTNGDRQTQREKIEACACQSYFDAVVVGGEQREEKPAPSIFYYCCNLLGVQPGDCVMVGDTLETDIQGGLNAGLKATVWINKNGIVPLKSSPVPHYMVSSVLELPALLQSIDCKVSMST
UniProt Q13075: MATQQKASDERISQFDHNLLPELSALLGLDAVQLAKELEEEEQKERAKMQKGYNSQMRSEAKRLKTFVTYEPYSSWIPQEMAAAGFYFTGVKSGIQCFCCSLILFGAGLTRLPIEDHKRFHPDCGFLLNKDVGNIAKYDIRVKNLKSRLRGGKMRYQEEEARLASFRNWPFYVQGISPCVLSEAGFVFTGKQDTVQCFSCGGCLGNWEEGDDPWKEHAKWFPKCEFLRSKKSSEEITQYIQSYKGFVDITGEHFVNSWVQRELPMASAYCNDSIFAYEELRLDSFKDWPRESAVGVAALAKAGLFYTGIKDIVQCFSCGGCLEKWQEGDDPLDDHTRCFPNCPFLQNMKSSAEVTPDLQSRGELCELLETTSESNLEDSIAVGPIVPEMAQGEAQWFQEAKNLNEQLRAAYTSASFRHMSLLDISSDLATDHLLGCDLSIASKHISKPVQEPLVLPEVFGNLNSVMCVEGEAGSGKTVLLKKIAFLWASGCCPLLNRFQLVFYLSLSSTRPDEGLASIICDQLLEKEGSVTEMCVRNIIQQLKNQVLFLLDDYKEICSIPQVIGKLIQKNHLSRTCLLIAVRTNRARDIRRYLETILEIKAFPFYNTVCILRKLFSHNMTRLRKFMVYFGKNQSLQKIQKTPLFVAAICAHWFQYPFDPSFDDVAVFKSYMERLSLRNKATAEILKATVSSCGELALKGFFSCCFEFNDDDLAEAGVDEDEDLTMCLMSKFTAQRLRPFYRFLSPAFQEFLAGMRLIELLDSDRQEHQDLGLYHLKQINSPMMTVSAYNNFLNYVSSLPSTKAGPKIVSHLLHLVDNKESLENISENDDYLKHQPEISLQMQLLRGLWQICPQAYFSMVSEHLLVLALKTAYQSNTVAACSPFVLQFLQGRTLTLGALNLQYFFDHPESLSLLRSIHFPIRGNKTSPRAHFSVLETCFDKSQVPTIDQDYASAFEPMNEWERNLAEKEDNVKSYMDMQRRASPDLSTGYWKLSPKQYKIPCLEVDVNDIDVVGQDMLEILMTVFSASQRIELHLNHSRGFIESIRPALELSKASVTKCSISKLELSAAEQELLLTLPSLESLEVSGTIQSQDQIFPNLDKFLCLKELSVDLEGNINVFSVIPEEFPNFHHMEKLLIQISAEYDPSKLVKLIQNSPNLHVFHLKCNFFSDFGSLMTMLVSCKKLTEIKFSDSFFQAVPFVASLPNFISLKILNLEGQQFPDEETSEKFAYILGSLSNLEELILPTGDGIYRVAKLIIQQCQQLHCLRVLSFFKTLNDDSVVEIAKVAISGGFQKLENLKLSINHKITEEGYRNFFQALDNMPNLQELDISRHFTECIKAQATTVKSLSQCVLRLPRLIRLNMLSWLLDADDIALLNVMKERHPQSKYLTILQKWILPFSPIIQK
NBDY, A0A0U1RRE5, UniProt A0A0U1RRE5, whole entry, looked up: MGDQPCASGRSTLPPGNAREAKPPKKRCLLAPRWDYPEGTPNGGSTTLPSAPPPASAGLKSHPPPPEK
UniProt Q9BQ15: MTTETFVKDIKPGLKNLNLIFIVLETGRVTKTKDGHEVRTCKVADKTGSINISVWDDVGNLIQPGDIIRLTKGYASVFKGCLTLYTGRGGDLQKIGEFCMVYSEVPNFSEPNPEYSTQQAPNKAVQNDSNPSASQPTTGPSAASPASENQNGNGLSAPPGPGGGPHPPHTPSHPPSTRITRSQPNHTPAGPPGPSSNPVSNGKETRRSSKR
UniProt Q6ZNJ1: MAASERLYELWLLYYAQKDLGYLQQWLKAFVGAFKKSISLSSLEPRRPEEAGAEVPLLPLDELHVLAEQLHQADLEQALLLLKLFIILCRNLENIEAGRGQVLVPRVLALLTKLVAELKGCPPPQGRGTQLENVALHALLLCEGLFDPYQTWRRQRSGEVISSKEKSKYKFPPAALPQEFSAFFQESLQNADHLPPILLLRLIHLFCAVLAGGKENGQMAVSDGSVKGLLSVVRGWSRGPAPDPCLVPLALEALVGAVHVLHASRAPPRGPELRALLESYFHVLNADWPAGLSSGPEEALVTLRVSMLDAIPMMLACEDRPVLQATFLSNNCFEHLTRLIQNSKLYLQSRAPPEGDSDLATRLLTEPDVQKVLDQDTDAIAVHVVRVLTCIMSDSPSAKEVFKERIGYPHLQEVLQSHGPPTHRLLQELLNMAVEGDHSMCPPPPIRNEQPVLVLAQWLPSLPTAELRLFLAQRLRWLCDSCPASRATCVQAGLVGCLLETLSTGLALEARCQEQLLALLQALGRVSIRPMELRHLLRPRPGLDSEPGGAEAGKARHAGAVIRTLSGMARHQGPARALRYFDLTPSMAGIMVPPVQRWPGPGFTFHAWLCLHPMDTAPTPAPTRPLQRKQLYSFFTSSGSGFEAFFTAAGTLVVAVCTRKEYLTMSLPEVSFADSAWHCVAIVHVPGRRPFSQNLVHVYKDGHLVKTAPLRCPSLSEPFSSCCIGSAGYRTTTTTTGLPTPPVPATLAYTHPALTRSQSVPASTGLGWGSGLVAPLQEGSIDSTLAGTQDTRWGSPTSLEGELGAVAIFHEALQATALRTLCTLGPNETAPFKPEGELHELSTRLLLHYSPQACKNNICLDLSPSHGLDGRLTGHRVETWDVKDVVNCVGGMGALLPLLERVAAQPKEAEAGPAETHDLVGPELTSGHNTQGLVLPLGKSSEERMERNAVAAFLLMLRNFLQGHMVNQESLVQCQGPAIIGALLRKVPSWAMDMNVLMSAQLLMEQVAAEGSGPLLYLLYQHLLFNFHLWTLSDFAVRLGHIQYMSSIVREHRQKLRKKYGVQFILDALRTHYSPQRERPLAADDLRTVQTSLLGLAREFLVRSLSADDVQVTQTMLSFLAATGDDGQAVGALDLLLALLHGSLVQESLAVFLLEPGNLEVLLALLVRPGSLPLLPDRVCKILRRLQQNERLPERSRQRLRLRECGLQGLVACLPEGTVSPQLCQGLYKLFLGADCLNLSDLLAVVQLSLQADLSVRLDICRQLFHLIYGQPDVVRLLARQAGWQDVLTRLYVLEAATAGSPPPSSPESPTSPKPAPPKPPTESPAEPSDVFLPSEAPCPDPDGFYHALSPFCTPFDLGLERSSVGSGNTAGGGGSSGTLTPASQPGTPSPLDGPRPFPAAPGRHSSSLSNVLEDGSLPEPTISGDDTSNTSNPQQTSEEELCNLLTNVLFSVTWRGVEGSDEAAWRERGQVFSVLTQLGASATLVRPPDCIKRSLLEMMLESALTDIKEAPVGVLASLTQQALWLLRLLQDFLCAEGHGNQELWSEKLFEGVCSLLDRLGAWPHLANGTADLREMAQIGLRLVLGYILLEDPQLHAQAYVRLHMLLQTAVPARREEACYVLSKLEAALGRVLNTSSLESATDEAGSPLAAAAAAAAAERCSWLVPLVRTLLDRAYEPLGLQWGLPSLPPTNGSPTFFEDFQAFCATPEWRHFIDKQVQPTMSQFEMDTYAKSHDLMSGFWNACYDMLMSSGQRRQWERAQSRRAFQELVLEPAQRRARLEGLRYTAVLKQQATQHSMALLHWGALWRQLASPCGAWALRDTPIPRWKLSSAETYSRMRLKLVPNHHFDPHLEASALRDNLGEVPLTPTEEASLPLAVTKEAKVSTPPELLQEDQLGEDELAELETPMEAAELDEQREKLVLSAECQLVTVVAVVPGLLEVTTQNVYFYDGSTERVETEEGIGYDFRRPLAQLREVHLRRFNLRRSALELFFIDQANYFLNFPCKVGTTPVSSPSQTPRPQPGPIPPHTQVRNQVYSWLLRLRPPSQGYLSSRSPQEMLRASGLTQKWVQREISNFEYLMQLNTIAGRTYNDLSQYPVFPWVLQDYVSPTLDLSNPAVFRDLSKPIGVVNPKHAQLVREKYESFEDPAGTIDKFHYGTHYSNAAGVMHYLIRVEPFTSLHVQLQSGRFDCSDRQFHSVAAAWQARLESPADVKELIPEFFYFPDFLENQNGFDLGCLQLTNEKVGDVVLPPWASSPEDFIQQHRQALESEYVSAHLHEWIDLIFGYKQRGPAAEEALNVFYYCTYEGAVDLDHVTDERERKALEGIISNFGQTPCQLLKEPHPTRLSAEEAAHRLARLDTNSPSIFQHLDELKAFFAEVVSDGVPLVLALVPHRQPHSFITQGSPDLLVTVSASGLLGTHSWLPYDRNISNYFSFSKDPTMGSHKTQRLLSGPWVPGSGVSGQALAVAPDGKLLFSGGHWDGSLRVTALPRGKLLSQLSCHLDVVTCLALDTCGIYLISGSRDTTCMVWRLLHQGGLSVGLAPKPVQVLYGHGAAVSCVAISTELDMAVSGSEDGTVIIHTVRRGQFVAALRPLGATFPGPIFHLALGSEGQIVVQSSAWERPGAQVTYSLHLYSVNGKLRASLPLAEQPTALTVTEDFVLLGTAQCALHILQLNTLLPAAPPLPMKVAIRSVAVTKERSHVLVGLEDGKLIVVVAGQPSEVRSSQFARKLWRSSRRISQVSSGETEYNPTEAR
UniProt Q9HCD5: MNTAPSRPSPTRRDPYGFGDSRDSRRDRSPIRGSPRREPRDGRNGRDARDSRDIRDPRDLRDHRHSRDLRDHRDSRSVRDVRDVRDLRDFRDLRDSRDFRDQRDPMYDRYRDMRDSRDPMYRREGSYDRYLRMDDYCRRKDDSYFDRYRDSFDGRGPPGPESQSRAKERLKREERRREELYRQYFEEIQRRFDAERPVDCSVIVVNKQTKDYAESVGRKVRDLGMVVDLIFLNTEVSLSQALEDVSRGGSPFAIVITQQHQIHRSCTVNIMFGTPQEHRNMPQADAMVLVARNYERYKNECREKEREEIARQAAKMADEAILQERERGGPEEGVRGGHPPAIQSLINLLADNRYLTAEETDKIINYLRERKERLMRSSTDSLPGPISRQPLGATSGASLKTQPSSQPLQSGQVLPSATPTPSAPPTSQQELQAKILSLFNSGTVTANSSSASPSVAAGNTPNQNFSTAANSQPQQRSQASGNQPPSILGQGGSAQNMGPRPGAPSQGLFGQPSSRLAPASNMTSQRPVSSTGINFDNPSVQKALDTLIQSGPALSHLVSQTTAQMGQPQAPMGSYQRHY
UniProt P52849: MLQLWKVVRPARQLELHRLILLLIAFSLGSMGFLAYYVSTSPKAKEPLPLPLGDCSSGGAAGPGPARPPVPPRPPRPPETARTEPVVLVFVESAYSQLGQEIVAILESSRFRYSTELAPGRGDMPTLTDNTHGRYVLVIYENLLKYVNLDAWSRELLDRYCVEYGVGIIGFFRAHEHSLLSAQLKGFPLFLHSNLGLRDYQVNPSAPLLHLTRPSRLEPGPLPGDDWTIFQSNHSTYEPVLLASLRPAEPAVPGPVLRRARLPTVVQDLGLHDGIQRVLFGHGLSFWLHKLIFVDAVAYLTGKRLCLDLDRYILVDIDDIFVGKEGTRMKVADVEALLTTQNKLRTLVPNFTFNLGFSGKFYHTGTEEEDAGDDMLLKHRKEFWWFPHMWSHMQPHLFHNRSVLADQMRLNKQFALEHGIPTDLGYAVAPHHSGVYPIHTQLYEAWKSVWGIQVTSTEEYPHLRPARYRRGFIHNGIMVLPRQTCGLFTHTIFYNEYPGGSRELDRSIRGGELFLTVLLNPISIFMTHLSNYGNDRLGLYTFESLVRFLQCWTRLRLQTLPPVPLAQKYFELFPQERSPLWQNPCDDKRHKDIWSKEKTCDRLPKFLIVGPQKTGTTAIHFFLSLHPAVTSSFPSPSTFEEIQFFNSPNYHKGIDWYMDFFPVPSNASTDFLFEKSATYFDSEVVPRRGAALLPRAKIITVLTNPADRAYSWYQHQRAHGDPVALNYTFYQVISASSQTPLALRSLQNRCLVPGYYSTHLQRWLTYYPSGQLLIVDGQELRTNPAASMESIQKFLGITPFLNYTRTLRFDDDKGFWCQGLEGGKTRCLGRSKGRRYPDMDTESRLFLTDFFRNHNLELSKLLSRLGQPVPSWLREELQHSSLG

Holding throughout (test): log2 fold change, soluble protein after heating vs DMSO (PISA); higher = thermal stabilisation; K562 cells, 10 uM, 30 min; active = over 0.2 and 3.5 SD of the protein, either way, in both replicates (recomputed)
Compound in one assay: CON(C)C(=O)N1N=C(c2cc(F)ccc2F)S[C@@]1(CCCN)c1ccccc1 [filanesib]
The method in brief:
(§1)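 K562 cells at 2×10^6 cells/mL were treated with 10 μM compound for 30 min. Aliquots were heated for 3 min across 48°C-58°C, pooled, and extracted in PBS with 0.5% NP-40 at 4°C; soluble protein was the supernatant after 21,000xg for 90 min. Soluble protein was quantified by TMTpro 16plex LC-MS/MS with channel sums equalised, and reported as log2 fold change in thermal stability against DMSO controls, with values from duplicates.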

Compound in a further assay: COc1cc(Nc2ncc3c(n2)-c2ccc(Cl)cc2C(c2c(F)cccc2OC)=NC3)ccc1C(=O)O [alisertib]
The method in brief:
as §1

Compound in assay [1]: COc1cc2nc(-c3cc(F)ccc3O)nc(N[C@@H]3CNC[C@H]3C(C)(C)O)c2cc1OC
The method, boiled down:
as §1

Compound in assay [2]: COc1cccc2cc(-c3nc([C@H]4CC[C@H](C(=O)O)CC4)n4ncnc(N)c34)[nH]c12
The method, boiled down: as §1

Compound in a further assay: CS(=O)(=O)CCNCc1ccc(-c2ccc3ncnc(Nc4ccc(OCc5cccc(F)c5)c(Cl)c4)c3c2)o1 [lapatinib]
The method, boiled down:
as §1

Compound in assay [3]: CS(=O)(=O)c1ccc(-c2cnc(N)c(C(=O)Nc3ccccc3)n2)cc1
The method, boiled down:
as §1

Compound in the next assay: Cc1cc(Nc2cc(N3CCN(C)CC3)nc(Sc3ccc(NC(=O)C4CC4)cc3)n2)n[nH]1 [tozasertib]
The method in brief:
as §1

Compound in another assay: Cc1ccc(C(=O)N(CCCN)[C@@H](c2nc3cc(Cl)ccc3c(=O)n2Cc2ccccc2)C(C)C)cc1 [ispinesib]
The method, boiled down: as §1

Compound in a further assay: CO[C@H]1C[C@@H]2CC[C@@H](C)[C@@](O)(O2)C(=O)C(=O)N2CCCC[C@H]2C(=O)O[C@H]([C@H](C)C[C@@H]2CC[C@H](n3cnnn3)[C@H](OC)C2)CC(=O)[C@H](C)/C=C(\C)[C@@H](O)[C@@H](OC)C(=O)[C@H](C)C[C@H](C)/C=C/C=C/C=C/1C [zotarolimus]
The method in brief:
as §1

Compound in another assay: COc1cc(C(=O)O)ccc1NC(=O)[C@@H]1N[C@@H](CC(C)(C)C)[C@](C#N)(c2ccc(Cl)cc2F)[C@H]1c1cccc(Cl)c1F [idasanutlin]
The method, boiled down:
as §1

Compound in another assay: COc1cc2ncnc(Nc3ccc(F)c(Cl)c3)c2cc1OCCCN1CCOCC1 [gefitinib]
The method, boiled down: as §1

Compound in another assay: CS(=O)(=O)N1CCN(Cc2cc3nc(-c4cccc5[nH]ncc45)nc(N4CCOCC4)c3s2)CC1 [pictilisib]
The method in brief:
as §1

Compound in assay [4]: C[C@@H]1COCCN1C2=NC(=NC(=C2)C3(CC3)S(=O)(=O)C)C4=C5C=CNC5=CC=C4
The method, boiled down: as §1

Compound in assay [5]: C[C@H](C1=CC=C(C=C1)C(=O)NC2=C3C=CNC3=NC=C2)N
The method in brief:
as §1

Compound in a further assay: C[C@H](Nc1ncnc2nc[nH]c12)c1cc2cccc(Cl)c2c(=O)n1-c1ccccc1 [duvelisib]
The method in brief:
as §1

Compound in another assay: Cc1cc(Nc2cc(CN3CCOCC3)c3nc(C)c(Cc4ccc(Cl)cc4F)n3n2)n[nH]1 [gandotinib]
The method, boiled down: as §1

Compound in assay [6]: Cc1cc(SCc2sc(-c3ccc(C(F)(F)F)cc3)nc2C)ccc1OCC(=O)O
The method, boiled down: as §1

Compound in assay [7]: COC1=CC=C(C=C1)CN2C=CC3=C2C=C(C=C3)C(=O)NO
The method in brief: as §1

Compound in the next assay: C[C@@H](Oc1cc(-c2cnn(C3CCNCC3)c2)cnc1N)c1c(Cl)ccc(F)c1Cl [crizotinib]
The method, boiled down:
as §1

Compound in the next assay: Cc1ccc(-n2nc(C(C)(C)C)cc2NC(=O)Nc2ccc(OCCN3CCOCC3)c3ccccc23)cc1 [doramapimod]
The method, boiled down: as §1

Some of the results follow.

Turning to NDFIP2 (UniProt Q9NV92), the log2 fold change was inactive: -0.488 with filanesib; inactive: -0.396 in the assay with alisertib; inactive: -0.091 in [1]; inactive: -0.065 in assay [2]; inactive: 0.056 with lapatinib; inactive: 0.171 in assay [3]. In addition, the log2 fold change was inactive: 0.091 with tozasertib and inactive: 0.184 with ispinesib.
Turning to NANP (UniProt Q8TBE9), the log2 fold change with filanesib is inactive: -0.048; with zotarolimus, inactive: 0.034; with idasanutlin, inactive: -0.037; with alisertib, inactive: -0.003; in [1], inactive: 0.089; in the assay with gefitinib it was inactive: 0.011. Further, the log2 fold change in assay [2] was inactive: -0.049; with lapatinib, inactive: 0.072; with pictilisib, inactive: 0.094; in assay [3], inactive: 0.033; in assay [4] it was inactive: 0.043; in [5], inactive: 0.033. Also, the log2 fold change was inactive: 0.077 with duvelisib, inactive: 0.019 with gandotinib, inactive: 0.073 with tozasertib and inactive: 0.09 in assay [6].
On to NAIP (UniProt Q13075), for which the log2 fold change was inactive: -0.544 in assay [7]; inactive: 0.347 in assay [1]; inactive: -0.597 in the assay with lapatinib; inactive: 0.075 in the assay with crizotinib; inactive: -0.067 in the assay with doramapimod; inactive: -0.895 with ispinesib.
For NEK1 isoform 3 (UniProt Q96PY6), the log2 fold change in assay [7] is inactive: 0.285; with zotarolimus it was inactive: -0.156; with idasanutlin it was inactive: -0.061; with crizotinib it was inactive: -0.191; in [5] it was inactive: 0.142; in the assay with duvelisib, inactive: -0.073. Further, the log2 fold change in assay [6] was inactive: -0.144; with doramapimod, inactive: -0.064; in the assay with ispinesib, inactive: 0.016.
For the target NAP1L4 (UniProt C9J6D1), the log2 fold change in assay [7] is inactive: -0.297; in the assay with filanesib, inactive: 0.076; in the assay with idasanutlin, inactive: 0.088; in assay [3], inactive: 0.078; in the assay with crizotinib, inactive: 0.033; with duvelisib it was inactive: 0.014. Further, the values for the log2 fold change (in assay [6]; in the assay with doramapimod) were inactive: -0.029 and inactive: -0.036, respectively.
In the case of NBDY, A0A0U1RRE5, the log2 fold change with zotarolimus was inactive: -0.058; with idasanutlin, inactive: 0.02; with alisertib, inactive: 0.016; in assay [1], inactive: 0.227; with gefitinib, inactive: 0.029; in assay [2], inactive: 0.122. The log2 fold change in the assay with lapatinib was inactive: 0.002; in the assay with pictilisib, inactive: -0.044; in [4], inactive: 0.299; in assay [5] it was inactive: -0.086; with duvelisib, inactive: 0.147; with gandotinib, inactive: -0.025. Besides, the log2 fold change in the assay with tozasertib was inactive: -0.101; in assay [6], inactive: 0.001; with ispinesib, inactive: 0.035.
As to NABP2 (UniProt Q9BQ15), the log2 fold change is inactive: 0.071 with duvelisib and inactive: 0.064 in [6].
As to MYSM1 (UniProt Q5VVJ2), the log2 fold change in [7] was inactive: -0.063; with filanesib it was inactive: -0.007; in [3], inactive: 0.067; in the assay with crizotinib it was inactive: -0.091; with doramapimod, inactive: -0.045; with ispinesib, inactive: 0.128.
With NA, A0A494C071, the log2 fold change in assay [7] was inactive: -0.265; with zotarolimus, inactive: -0.011; with idasanutlin, inactive: -0.392; with alisertib, inactive: 0.016; with gefitinib, inactive: 0.367; in assay [2], inactive: 0.143. In addition, the log2 fold change is inactive: 0.277 with pictilisib; active: -0.887 in the assay with crizotinib; inactive: 0.137 in assay [4]; inactive: 0.043 in assay [5]; inactive: -0.352 with gandotinib; inactive: -0.102 in assay [6]. Also, the log2 fold change in the assay with doramapimod was inactive: 0.104.
As for NBEAL2 (UniProt Q6ZNJ1), the log2 fold change in assay [7] was inactive: 0.159; in the assay with zotarolimus, inactive: -0.013; in the assay with alisertib, inactive: -0.195; in assay [2], inactive: -0.026; with pictilisib, inactive: -0.065; with crizotinib, inactive: 0.002. Further, the log2 fold change in assay [5] was inactive: 0.142; with gandotinib, inactive: 0.09; in the assay with doramapimod it was inactive: 0.088; with ispinesib, inactive: -0.304.
Turning to NCOA5 (UniProt Q9HCD5), the log2 fold change is inactive: 0.046 in assay [7]; inactive: 0.209 in the assay with filanesib; inactive: 0.04 in assay [1]; inactive: 0.145 in the assay with gefitinib; inactive: 0.047 with lapatinib; inactive: -0.043 with pictilisib. Further, the log2 fold change in [3] is inactive: -0.005; in the assay with crizotinib, inactive: -0.131; in the assay with gandotinib it was inactive: 0.05; in [6] it was inactive: 0.052; with doramapimod, inactive: 0.168; with ispinesib, inactive: 0.02.
For the target NDRG1 (UniProt Q92597), the log2 fold change is inactive: 0.03 in [1] and inactive: -0.108 in the assay with lapatinib.
For NECTIN2 isoform 2 (UniProt Q92692), the log2 fold change was inactive: 0.106 in [7]; inactive: 0.094 in the assay with filanesib; inactive: 0.061 with idasanutlin; inactive: -0.016 with alisertib; inactive: -0.048 with gefitinib; inactive: 0.093 in assay [2]. For the same target, the log2 fold change with pictilisib was inactive: -0.368; in [3], inactive: -0.059; with crizotinib, inactive: 0.062; in assay [4], inactive: -0.2; in the assay with gandotinib, inactive: -0.206; in assay [6], inactive: -0.149. Also, the log2 fold change with doramapimod was inactive: -0.086; with ispinesib it was inactive: 0.198.
Consider NDST2 (UniProt P52849), for which the log2 fold change in assay [7] was inactive: 0.017; with filanesib, inactive: 0.07; in the assay with idasanutlin, inactive: 0.04; with alisertib it was inactive: -0.056; in the assay with gefitinib, inactive: 0.328; in assay [2], inactive: -0.046. In addition, the log2 fold change is inactive: 0.181 in assay [3]; inactive: -0.143 in the assay with crizotinib; inactive: 0 in assay [4]; inactive: -0.042 in the assay with tozasertib; inactive: 0.083 in the assay with doramapimod; inactive: 0.011 with ispinesib.
Consider NDEL1 isoform 2 (UniProt Q9GZM8), for which the log2 fold change was inactive: -0.046 with zotarolimus; inactive: 0.083 with idasanutlin; inactive: -0.056 with alisertib; inactive: -0.109 in assay [1]; inactive: -0.007 in the assay with gefitinib; inactive: 0.079 in [2]. Further, the log2 fold change with lapatinib was inactive: -0.004; with pictilisib, inactive: 0.007; in [4] it was inactive: -0.031; in assay [5] it was inactive: 0.017; with duvelisib, inactive: 0.087; in the assay with gandotinib, inactive: -0.017. For the same target, the results for the log2 fold change (with tozasertib; in assay [6]; with ispinesib) were inactive: -0.045, inactive: 0.156 and inactive: -0.076, respectively.
